For 11 compounds, T/C and survivor count results are on record in PubChem BioAssay AID330 (DTP/NCI, 2004).

In the assay the test system is P388 leukemia ip, CD2F1 mice, survival T/C. Put plainly: NCI In Vivo Anticancer Drug Screen. Data for tumor model P388 Leukemia (intraperitoneal) in CD2F1 (CDF1) mice. The conditions noted are these: T/C endpoint: median survival time, higher T/C = longer survival.
Setting [1] is: dose: 25.0 mg/kg/injection, schedule: Q01DX009 (ip), vehicle: saline.
[2] abbreviates: dose: 200.0 mg/kg/injection, schedule: Q01DX005 (ip), vehicle: saline with Tween-80.
The mark [3] stands for this setting: dose: 3.12 mg/kg/injection, schedule: Q01DX009 (ip), vehicle: Klucel (hydroxypropylcellulose) (HPC).
Where [4] appears, read: dose: 6.25 mg/kg/injection, schedule: Q01DX009 (ip), vehicle: Klucel (hydroxypropylcellulose) (HPC).
Where [5] appears, read: dose: 50.0 mg/kg/injection, schedule: Q01DX009 (ip), vehicle: saline.
Setting [6] is: dose: 240.0 mg/kg/injection, schedule: Q01DX005 (ip), vehicle: saline with Tween-80.

SMILES strings stand for the structures. The list does not hold the whole screen: it is rich in T/C values a quarter to a half above the control, in often repeated tests (any T/C) and in doses without a T/C. Further doses and runs are listed elsewhere. T/C: endpoint of the treated group in % of that of the vehicle group. Some entries give survivors of the animals treated and no T/C: the source files T/C as zero there, which appears to mark a toxic dose or a test without result, not a measured value. Some survivor counts are full or nearly so, which does not show that the dose was tolerated: survival well below the control is almost never listed, so the zero probably covers shortened survival too. Counts of survivors are from the toxicity check (mostly the fifth day) where no day follows; animals may have died later. Schedules are NCI's codes, read here as Q, the interval in days (D) or hours (H), X, the number of doses. Some doses were run more than once; their values stand side by side, smallest first. For survival time, the PubChem record calls one and a half times the control and up active, and a quarter to a half above the control has no call in these data; cut-offs in other NCI protocols can differ. Some T/C values are followed by the survivors on the day toxicity was checked, most often the fifth; where none is given, no animal had died by that day.

For `CN(C)CCCN1c2ccccc2Sc2ccc(C(F)(F)F)cc21`, the T/C runs as follows: (dose: 16.5 mg/kg/injection, schedule: Q01DX009 (ip), vehicle: saline) 127 % of control [5 of 6 alive]; (dose: 25.0 mg/kg/injection, schedule: Q01DX009 (ip), vehicle: saline with Tween-80) 128 % of control. The survivor count under setting [1] is 4 of 6; the survivor count (dose: 37.0 mg/kg/injection, schedule: Q01DX009 (ip), vehicle: saline) is on record as 4 of 6; the survivor count (dose: 50.0 mg/kg/injection, schedule: Q01DX009 (ip), vehicle: saline with Tween-80) is listed as 2 of 6.
With `CN(C)c1ccc(C2(c3ccc(N(C)C)cc3)c3ccccc3C(=O)N2N)cc1`, under setting [2], the survivor count is on record as 4 of 6.
`CC1CN1C1=C(Cl)C(=O)C(N2CC2C)=C(Cl)C1=O` (stereo not drawn): the T/C by setting is: under setting [3], 129 % of control; under setting [4], 126 and 129 % of control; (dose: 12.5 mg/kg/injection, schedule: Q01DX009 (ip), vehicle: Klucel (hydroxypropylcellulose) (HPC)) 127 and 132 % of control; (dose: 25.0 mg/kg/injection, schedule: Q01DX009 (ip), vehicle: Klucel (hydroxypropylcellulose) (HPC)) 129 and 139 % of control.
Take `Clc1ccc([Si]23OCCN(CCO2)CCO3)cc1`: the survivor count (dose: 1.56 mg/kg/injection, schedule: Q01DX009 (ip), vehicle: Klucel (hydroxypropylcellulose) (HPC)) is reported as 0 of 6; the survivor count under setting [3] was 0 of 6; the survivor count under setting [4] is on record as 0 of 6.
With `CC[N+](C)(CC)CCNC(=O)Nc1ccc(-c2ccc(NC(=O)NCC[N+](C)(CC)CC)c(OC)c2)cc1OC`, the survivor count by setting is: under setting [1], 0 of 6; under setting [5], 6 of 6; (dose: 100.0 mg/kg/injection, schedule: Q01DX009 (ip), vehicle: saline) 1 of 6; (dose: 200.0 mg/kg/injection, schedule: Q01DX009 (ip), vehicle: saline) 0 of 6.
As to `CSC(=S)N/N=C(\C)c1ccccc1`, the survivor count (dose: 12.5 mg/kg/injection, schedule: Q01DX009 (ip), vehicle: saline) was 6 of 6; the survivor count under setting [1] is 6 of 6; the survivor count under setting [5] is 6 of 6.
Regarding `CCC[CH2][Sn]([F])([F])[CH2]CCC`, the survivor count (dose: 100.0 mg/kg/injection, schedule: Q04DX003 (ip), vehicle: saline) is on record as 0 of 6; the survivor count (dose: 200.0 mg/kg/injection, schedule: Q04DX003 (ip), vehicle: saline) was 0 of 6; the survivor count (dose: 400.0 mg/kg/injection, schedule: Q04DX003 (ip), vehicle: saline) was 0 of 6.
On to `NC(C(=O)O)C1C=CCC1` (stereo not drawn), for which, for the setting “dose: 200.0 mg/kg/injection, schedule: Q01DX005 (ip), vehicle: Klucel (hydroxypropylcellulose) (HPC)”, the survivor count is 1 of 6.
In the case of `Nc1ccc2nc(-c3ccccc3)c(=O)oc2c1`, the survivor count under setting [6] is on record as 3 of 6.
On to `N#CC1=CNc2ccccc2N=C1N`, for which the survivor count under setting [2] is reported as 0 of 5.
As to `CC(=O)O[C@H]1CC[C@]2(C)C3CC[C@]4(C)C([C@H](C)CCCC(C)C)CCC4[C@]3(/C=N/O)n3c(=O)n(-c4ccccc4)c(=O)n3[C@]2(/C=N\O)C1` (stereo partly drawn), the survivor count reads like this: (dose: 3.75 mg/kg/injection, schedule: Q01DX005 (ip), vehicle: saline with Tween-80) 5 of 6; (dose: 7.5 mg/kg/injection, schedule: Q01DX005 (ip), vehicle: saline with Tween-80) 0 of 5 and 0 of 6; (dose: 15.0 mg/kg/injection, schedule: Q01DX005 (ip), vehicle: saline with Tween-80) 0 of 6; (dose: 30.0 mg/kg/injection, schedule: Q01DX005 (ip), vehicle: saline with Tween-80) 0 of 6; (dose: 60.0 mg/kg/injection, schedule: Q01DX005 (ip), vehicle: saline with Tween-80) 0 of 6; (dose: 120.0 mg/kg/injection, schedule: Q01DX005 (ip), vehicle: saline with Tween-80) 0 of 6. Moreover, the survivor count under setting [6] is recorded as 0 of 6.
